Experimental data taken from patent US20160046678A1 (ZYNGENIA, published 2016).
Results are given in words; binding and its absence hold for the method and conditions named. Some results given as binding are weak or reduced against the parent protein; the word gives no strength.

The binders below were run against ErbB2 (UniProt P04626) (assay: MRD identification, Example 48).

Binder	binding
FQGHCALFPTDWICTLKS [EGB811]	binds
WSGYCEYKDRWAHCRGTM [EGB851]	binds
WSGYCEGKEHWYQCGGPL [EGB847]	binds
WTHACVVWNMKQMEACTSLT [EGB778]	binds
WSGYCEKEGYWAHCRGTI [EGB816]	binds
WSGYCQLMDHWDYCHGQG [EGB799]	binds
WSGYCEMEDRWAYCSGSI [EGB839]	binds
WSGYCEYRDHWAHCGGSL [EGB791]	binds
WSGYCEYEDHWDYCGTWV [EGB838]	binds
LLNQCLQWAFHNCGCWN [EGB779]	binds
WSGYCNMGDHWDHCSGSI [EGB818]	binds
WSGYCEMKGYWAHCTGLI [EGB785]	binds
WSGYCEFKGYWDFCYGSM [EGB827]	binds
TDSWCHTLYWQLHHCAILE [EGB770]	binds
WSGYCEFEDHWDYCGNSE [EGB810]	binds
WSGYCEFKTHWGHCGNPQ [EGB813]	binds

Binder	binding
LICKQHKNHWHCRNYY [EGB758]	binds
WSGYCEFKDHWDHCGDSE [EGB825]	binds
WSGYCEYKDHWDYCGSSV [EGB788]	binds
LHRFCDHFAIQCRFCN [EGB748]	binds
WSGYCEFRDHWDYCGNSY [EGB832]	binds
WSGYCQMKDHWDYCSGSL [EGB845]	binds
KWRCCYGQFQQACNAVS [EGB771]	binds
WSGYCESYDHWYHCGGTL [EGB837]	binds
KWTRCIPRMETHTCDCLL [EGB740]	binds
WSGYCEFKGYWDHCGSSK [EGB850]	binds
WSGYCEFKDHWDHCGGSL [EGB840]	binds
HRAPCFSCTACRQPCFSLT [EGB781]	binds
WSGYCEYKDHWGYCGGSI [EGB798]	binds
WSGYCEMKGYWDFCGGLI [EGB822]	binds
WSGYCELKDRWAYCSGSI [EGB780]	binds
WSGYCEFKDHWDYCGNSD [EGB834]	binds

Other lines, results leading:

binding	Binder
binds	WSGYCEFKDHWDYCGGSY [EGB852]
binds	WSGYCEMEHGWDYCSGTI [EGB824]
binds	WSGYCEMNDHWDYCYGPK [EGB831]
binds	WSGYCEFSDHWDHCGNSK [EGB855]
binds	WSGYCEGQYFWYHCSGSG [EGB829]
binds	WSGYCEFNDHWAHCHGSP [EGB848]
binds	WSGYCEYIDHWGYCQGSI [EGB795]
binds	WSGYCEFEDHWDYCHGSV [EGB803]
binds	WSGYCEFQDYWDYCGGSI [EGB823]
binds	WSGYCELEDHWAFCGGTI [EGB826]
binds	WSGYCQTNDHWDYCSGTI [EGB836]
binds	WSGYCEMKDHWAHCSGSI [EGB853]
binds	WSGYCEFLDHWDHCSGGE [EGB786]
binds	WSGYCEFEGYWAHCGGSI [EGB792]
binds	WSGYCEYKDHWDHCGSSV [EGB787]
binds	WSGYCEFKDHWDHCHSSG [EGB814]
binds	WSGYCEFQDHWDHCFGSS [EGB830]

binding	Binder
binds	WSGYCEFNGFWAHCGGFI [EGB808]
binds	WSGYCEYKDHWDFCGNVD [EGB789]
binds	WSGYCEFKDHWAHCSGSL [EGB820]
binds	WSGYCEFKDHWDFCGGSY [EGB835]
binds	WSGYCEFKDRWAHCSGSI [EGB849]
binds	WSGYCEYQDHWAHCGRSM [EGB854]
binds	WSGYCEFKDHWDYCHGSV [EGB806]
binds	WSGYCLMKDHWGYCGGWI [EGB809]
binds	KPWKCFYSYKIQHWKCHGVS [EGB763]
binds	WSGYCEMGDHWDYCSGSV [EGB807]
binds	WSGYCEMKGHWAHCGGSP [EGB817]
binds	WSGYCEMKDHWAHCGGLI [EGB805]
binds	WSGYCEMKDHWAHCGGSI [EGB857]
binds	WSGYCEMNDHWDYCYGSI [EGB796]
binds	WSGYCEMTDHWAHCSGSH [EGB802]
binds	KLPQCLWEWDNRDCRWLL [EGB746]

These binders were tested against EGFR (UniProt P00533) (assay: peptide screen, Example 48).

binding	Binder
binds	YAEHCQLFPSDWICSLET [EGA744]
binds	YAEHCRHFWTDWICSLKT [EGA748]
binds	YAEHCAQFPTDWICSLIS [EGA746]
binds	YAQHCYQFPSDWICSLLP [EGA747]
